Measured values taken from the supplement of paper PMC12889115.
The other results are listed elsewhere or left out. These are raw signals, not scaled to a control.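 First-pass screen: polymyxin B was added at a level that permeabilizes the Salmonella outer membrane while sparing the inner membrane. DMSO wells, with and without polymyxin B, defined maximum growth. Because plates differed from one another, each plate's data were ranked separately and the compounds with the lowest OD600 were carried forward as hits.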

System: Salmonella enterica serovar Typhimurium SL1344
Test: bacterial growth OD600 after 18 h with compound and polymyxin B; higher = more bacterial growth (less inhibition)
Details: 50 µM, Mueller-Hinton broth

Row | Structure (SMILES) | bacterial growth OD600 (polymyxin B 0.75 µg/mL) | bacterial growth OD600 (polymyxin B 1 µg/mL)
1 | COC(=O)[C@]1(C)C[C@H](C(=O)NCCc2cnccn2)[C@H](c2ccccc2C)N1C | 0.863 | 
2 | CCNC(=O)c1cn(CC(C)C)cc(C(=O)NC2CCCCCC2)c1=O | 0.984 | 
3 | C=CCC(=O)N1CCCC1C(=O)Nc1ccccc1Oc1cccnc1 (stereo not drawn) |  | 0.958
4 | CC(C)=CCN1CCOc2ccc(C(C)(O)CN(C)C)cc2C1 (stereo not drawn) | 0.788 | 
5 | CCN(Cc1ccccc1)Cc1cnc(S(=O)(=O)CC)n1CCc1ccccc1 |  | 0.004
6 | CC(=O)c1ccccc1C(=O)N1CCC(n2nccc2NC(=O)C(C)(C)C)CC1 |  | 1.14
7 | COc1ccccc1C(=O)N[C@@H]1c2ccccc2C2(CCN(C(=O)c3cc(C)nn3C)CC2)[C@H]1OC | 0.875 | 
8 | COCCCN1C(=O)CC(CC(=O)N2CCN(c3ccc(F)cc3)CC2)(c2ccccc2OC)C1=O (stereo not drawn) | 0.974 | 
